Data source: PubChem BioAssay AID743454 (Peter MacCallum Cancer Centre, 2014)
In all, the deposit lists about 18,000 reagents; shown is a part drawn at random. 450 of them (2.5%) count as active. 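Single biological run; no consistent viability z cut-off exists, so the class columns, not z-scores, define the calls.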 A number with no mark means an inactive call. Reagent sequences are not shown.

Assay: 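Genes whose loss kills vorinostat-resistant colon cancer cells under vorinostat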 (primary screen)
Cell system: human HCT116-VR colon cancer cells, selected for vorinostat resistance
Reagent: siRNA pool against human genes, 40 nM siRNA pool
Time to read-out: vorinostat for 24 h, read-out about 72 h after transfection
Treatment: vorinostat at 2.5 µM final
Measurement: 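Two measures, CellTiter-Fluor viability and luminescent caspase 3/7 activity, each as fold change against same-plate mock wells, mean of duplicates, then screen-wide robust z-score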
Scale: viability robust z-score: higher = more viable cells than screen typical; caspase robust z-score: higher = more caspase 3/7 activity than screen typical
Rule for the call: 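Hits are knock-downs in viability class RV1/RV2 or caspase class CA1/CA2, excluding ones that killed cells in the no-drug cell-count arm; hits then retested with single siRNAs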

| gene symbol | viability hit class | caspase hit class | viability robust z-score | caspase robust z-score |
| --- | --- | --- | --- | --- |
| GFM1 | no change | no change | -0.78 | 0.5 |
| SERTAD4 | no change | no change | 1.34 | -0.58 |
| GPR142 | no change | no change | -1.88 | 4.09 |
| RBM15B | no change | no change | -0.46 | 2.78 |
| DMP1 | no change | no change | -0.21 | -0.64 |
| KIRREL3 | no change | no change | 0.34 | -1.16 |
| PDE4DIP | no change | no change | -1.59 | -0.63 |
| RBBP5 | no change | no change | -0.02 | -0.64 |
| PAN2 | no change | no change | -0.66 | 2.1 |
| GBGT1 | no change | no change | 0.8 | 1 |
| HOXC11 | no change | no change | 0.82 | 1.35 |
| TMEM177 | no change | no change | -1.56 | 3.85 |
| MBNL3 | no change | no change | -3.94 | 1.78 |
| OR2AE1 | no change | no change | -0.16 | -0.52 |
| RAB39A | no change | no change | -0.04 | -0.1 |
| AXIN1 | no change | no change | 0.96 | -0.42 |
| OR4C45 | no change | no change | -0.02 | -0.72 |
| RHBDD1 | no change | no change | 0.26 | -0.74 |
| DEFB104A | no change | no change | -0.84 | -0.59 |
| INSL5 | no change | no change | -0.42 | 1.29 |
| ZNF517 | no change | no change | 0.82 | -0.46 |
| C1QL4 | no change | no change | 0.24 | 0.6 |
| AGPAT2 | no change | no change | -0.21 | 0.52 |
| JMJD8 | no change | no change | 0.61 | -1 |
| NME5 | no change | no change | -0.24 | 2.31 |
| FUT1 | no change | no change | -0.09 | -0.23 |
| LTB4R | no change | no change | -1.08 | 3.62 |
| CD37 | no change | no change | 0.73 | -0.74 |
| TBC1D29P | no change | no change | -0.41 | 0 |
| ANKRD20A2P | no change | no change | 0.54 | -1.17 |
| FGF11 | no change | no change | 0.82 | -0.69 |
| LDLR | no change | no change | -0.38 | 0.81 |
| ANKRD13D | no change | no change | 0.15 | 0.46 |
| GLDC | no change | no change | 0.28 | 0.08 |
| ADH1A | no change | no change | -0.42 | -1.08 |
| FLYWCH2 | no change | no change | -0.61 | 3.78 |
| CEBPG | no change | no change | 1.34 | -0.38 |
| FHIP2B | no change | no change | -0.05 | -0.57 |
| OR1A1 | no change | no change | -0.86 | 1.34 |
| GJA5 | no change | no change | 0.64 | 0.18 |
| PLXDC1 | no change | no change | -1.27 | 0.02 |
| CSAD | no change | no change | -0.88 | 1.09 |
| RBAK | no change | no change | -0.42 | 0.54 |
| CMYA5 | no change | no change | -0.01 | -0.58 |
| IFI35 | no change | no change | 0.84 | -0.28 |
| SLC37A4 | no change | no change | -0.02 | 0.03 |
| ALG12 | no change | no change | 0.54 | 0.1 |
| MTHFR | no change | no change | -0.1 | 0.12 |
| SLC24A5 | no change | no change | -0.9 | 0.09 |
| PARP14 | no change | no change | 0.84 | -0.83 |
| ENTREP3 | no change | no change | 0.8 | 0.9 |
| TADA1 | no change | no change | 0.55 | -0.57 |
| RNF41 | no change | no change | -0.42 | -0.24 |
| H1-2 | no change | no change | 0.84 | -0.33 |
| GRIN3A | no change | no change | 0.32 | -0.94 |
| OR5K2 | no change | no change | 0.4 | 0.19 |
| CLPTM1L | no change | no change | -1.06 | 0.96 |
